Source: doi:10.1101/2025.02.14.638310 (bioRxiv, 2025)
No constants are given. Whether binding was seen depends on the method and setting. Some entries that bind do so weakly or less than the wild type.

Protein sequences, listed by entry. Tags and fused reporters are not part of them. Residues count along the entry.
UniProt Q8I6T1, residues 28-426: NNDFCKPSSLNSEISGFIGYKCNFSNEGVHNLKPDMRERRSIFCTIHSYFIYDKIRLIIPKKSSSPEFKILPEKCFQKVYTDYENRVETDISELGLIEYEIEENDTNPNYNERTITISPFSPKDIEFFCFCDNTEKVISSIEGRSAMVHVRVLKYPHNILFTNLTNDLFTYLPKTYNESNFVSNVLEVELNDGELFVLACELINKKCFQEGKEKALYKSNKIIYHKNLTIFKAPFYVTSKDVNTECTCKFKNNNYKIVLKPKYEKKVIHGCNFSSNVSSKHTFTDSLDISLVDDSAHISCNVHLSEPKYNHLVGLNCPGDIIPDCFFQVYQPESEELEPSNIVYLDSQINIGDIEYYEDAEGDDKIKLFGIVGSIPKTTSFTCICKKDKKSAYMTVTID

Tests used:
[1] = target: Pfs48/45 (endogenous) (Plasmodium falciparum (endogenous in NF54 gametocytes and gametes)) (UniProt Q8I6T1); test: flow cytometry on cells
[2] = target: Pfs48/45 (endogenous) (Plasmodium falciparum (endogenous in NF54 gametocytes and gametes)) (UniProt Q8I6T1); test: western blot of saponin-treated gametocytes (membrane retention)

Substance	binding [1]	binding [2]
Pfs230^ΔCterm (Pfs230 lacking the last 29 C-terminal residues, res. 3107-3135) (from UniProt P68874 21-3106) (domain or fragment)	no binding	no binding
Pfs230 (endogenous, wildtype NF54 parasites) (from UniProt P68874 21-3135)	binds	
